Laboratory results reported in article PMC5446404.

Amino acid sequences for entries named in this document (tags omitted). A change or cut given only in a name is not applied to a line headed by its entry.
UniProt O75460: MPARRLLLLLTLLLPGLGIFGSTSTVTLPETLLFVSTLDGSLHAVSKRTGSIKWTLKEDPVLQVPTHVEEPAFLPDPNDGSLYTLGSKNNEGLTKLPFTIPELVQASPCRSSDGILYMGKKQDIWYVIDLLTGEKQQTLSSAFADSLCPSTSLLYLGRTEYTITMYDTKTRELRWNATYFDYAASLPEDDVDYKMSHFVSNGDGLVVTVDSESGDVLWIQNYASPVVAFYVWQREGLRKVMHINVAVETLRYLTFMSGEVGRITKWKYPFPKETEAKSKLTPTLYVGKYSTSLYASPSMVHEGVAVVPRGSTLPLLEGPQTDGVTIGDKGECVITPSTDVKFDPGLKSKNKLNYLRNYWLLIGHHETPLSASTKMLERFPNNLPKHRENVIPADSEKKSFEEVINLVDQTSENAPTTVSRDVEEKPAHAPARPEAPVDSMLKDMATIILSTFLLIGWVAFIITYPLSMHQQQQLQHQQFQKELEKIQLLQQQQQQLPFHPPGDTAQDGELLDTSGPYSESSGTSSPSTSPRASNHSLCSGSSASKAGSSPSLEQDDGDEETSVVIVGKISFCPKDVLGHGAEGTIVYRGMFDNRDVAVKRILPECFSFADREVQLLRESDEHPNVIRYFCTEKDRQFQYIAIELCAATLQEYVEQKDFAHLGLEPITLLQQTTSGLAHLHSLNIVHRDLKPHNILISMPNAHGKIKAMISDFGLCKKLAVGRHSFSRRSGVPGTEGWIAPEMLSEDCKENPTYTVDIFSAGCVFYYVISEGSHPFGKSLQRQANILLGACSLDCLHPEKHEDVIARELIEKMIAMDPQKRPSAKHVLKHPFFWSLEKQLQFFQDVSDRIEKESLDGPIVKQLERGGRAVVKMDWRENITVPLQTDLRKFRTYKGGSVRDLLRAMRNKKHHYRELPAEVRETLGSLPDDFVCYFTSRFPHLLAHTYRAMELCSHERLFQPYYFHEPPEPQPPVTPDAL

Target: T1, recombinant human fortilin (Strep-tag II), biotinylated (human) (UniProt P13693)
T1 sequence (chain, biotinylated (sites not stated)): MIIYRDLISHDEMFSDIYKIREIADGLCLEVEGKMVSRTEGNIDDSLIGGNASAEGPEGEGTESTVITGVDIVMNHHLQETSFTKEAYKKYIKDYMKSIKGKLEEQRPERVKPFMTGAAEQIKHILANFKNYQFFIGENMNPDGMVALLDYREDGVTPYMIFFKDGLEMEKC
Assay: BLI; BLItz (ForteBio); biotinylated fortilin immobilised on streptavidin-coated biosensors (25 μg/mL, 600 s), buffer exchange in PBS; analyte at various concentrations for 180 s, dissociation in PBS for 300 s; three independent experiments; both purified

For “GST-IRE1α-L (aa 1-70) (from UniProt O75460) (domain or fragment)”, the binding was “no binding”.

No constants are given. Whether binding was seen depends on the method and setting. Tags and fused reporters may be left off the sequences shown.
